Results: paper doi:10.1101/2022.11.10.515973

Amino acid sequences for entries named in this document (tags omitted). A change or cut given only in a name is not applied to a line headed by its entry.
UniProt Q39204: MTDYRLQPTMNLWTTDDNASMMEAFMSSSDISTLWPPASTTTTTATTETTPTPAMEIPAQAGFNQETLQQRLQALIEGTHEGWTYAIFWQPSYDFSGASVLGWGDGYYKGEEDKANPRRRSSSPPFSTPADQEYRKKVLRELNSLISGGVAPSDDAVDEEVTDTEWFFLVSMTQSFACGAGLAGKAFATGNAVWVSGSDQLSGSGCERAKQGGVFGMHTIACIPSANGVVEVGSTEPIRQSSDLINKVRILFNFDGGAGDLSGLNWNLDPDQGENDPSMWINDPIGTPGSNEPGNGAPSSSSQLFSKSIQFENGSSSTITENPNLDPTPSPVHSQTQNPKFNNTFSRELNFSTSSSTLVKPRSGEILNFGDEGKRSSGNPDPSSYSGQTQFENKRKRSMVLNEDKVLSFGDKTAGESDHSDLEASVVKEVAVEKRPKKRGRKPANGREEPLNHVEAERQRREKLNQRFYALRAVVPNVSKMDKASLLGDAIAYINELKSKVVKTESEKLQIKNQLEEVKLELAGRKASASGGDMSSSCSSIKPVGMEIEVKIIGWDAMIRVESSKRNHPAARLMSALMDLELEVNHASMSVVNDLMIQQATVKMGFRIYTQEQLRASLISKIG
UniProt Q9MAT6: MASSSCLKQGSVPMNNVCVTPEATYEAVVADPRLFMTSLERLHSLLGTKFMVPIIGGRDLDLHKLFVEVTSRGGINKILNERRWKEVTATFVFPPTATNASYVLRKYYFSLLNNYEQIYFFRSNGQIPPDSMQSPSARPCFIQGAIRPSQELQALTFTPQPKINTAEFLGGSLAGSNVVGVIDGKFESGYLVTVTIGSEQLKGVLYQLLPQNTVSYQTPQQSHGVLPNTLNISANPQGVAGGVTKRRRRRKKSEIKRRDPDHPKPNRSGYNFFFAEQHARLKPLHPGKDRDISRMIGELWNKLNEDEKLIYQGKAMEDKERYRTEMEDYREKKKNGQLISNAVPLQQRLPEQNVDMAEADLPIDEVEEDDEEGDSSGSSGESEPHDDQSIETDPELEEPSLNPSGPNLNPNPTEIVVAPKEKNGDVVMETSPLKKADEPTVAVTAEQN

Biological target: MYC2 (Arabidopsis thaliana) (UniProt Q39204)
Assay: split reporter

AtHMGB15 (from UniProt Q9MAT6)
binding: binds

Results are given in words; binding and its absence hold for the method and conditions named. In cells and extracts the contact can be indirect. A result given as binding can be weak or reduced; the word gives no strength.
